The test has as its target T1, green fluorescent protein-tagged Rbs1 (S. cerevisiae) (UniProt Q05672).
T1 sequence: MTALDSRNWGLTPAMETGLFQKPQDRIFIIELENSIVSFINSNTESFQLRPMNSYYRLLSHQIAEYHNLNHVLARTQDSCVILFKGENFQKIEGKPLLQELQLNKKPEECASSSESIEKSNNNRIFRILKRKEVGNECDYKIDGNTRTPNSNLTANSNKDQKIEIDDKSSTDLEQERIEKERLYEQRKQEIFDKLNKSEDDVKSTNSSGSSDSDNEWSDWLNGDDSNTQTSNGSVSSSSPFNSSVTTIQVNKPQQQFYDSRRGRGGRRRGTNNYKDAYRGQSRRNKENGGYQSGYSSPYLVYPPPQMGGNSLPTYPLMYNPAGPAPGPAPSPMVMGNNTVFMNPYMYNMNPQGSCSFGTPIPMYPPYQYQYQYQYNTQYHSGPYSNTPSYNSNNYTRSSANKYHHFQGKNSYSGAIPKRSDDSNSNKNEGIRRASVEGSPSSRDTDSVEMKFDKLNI
The experiment in a line: affinity purification with mass spectrometry; affinity purification of green fluorescent protein-tagged Rbs1 followed by quantitative mass spectrometry; relative amounts by MaxQuant (data of ref. 11).

The chains behind the UniProt entries cited, without tags or fusion partners.
UniProt P15646: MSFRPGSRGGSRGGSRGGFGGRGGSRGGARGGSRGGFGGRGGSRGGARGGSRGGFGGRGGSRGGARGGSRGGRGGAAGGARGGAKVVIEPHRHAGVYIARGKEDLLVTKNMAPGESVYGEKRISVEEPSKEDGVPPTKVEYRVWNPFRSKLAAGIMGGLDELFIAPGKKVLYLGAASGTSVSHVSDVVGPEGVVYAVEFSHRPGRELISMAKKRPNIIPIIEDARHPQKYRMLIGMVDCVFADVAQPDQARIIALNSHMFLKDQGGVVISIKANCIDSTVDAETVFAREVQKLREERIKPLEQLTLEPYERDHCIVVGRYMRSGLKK

Results are given in words; binding and its absence hold for the method and conditions named. In cells and extracts the contact can be indirect. Here binding means that the protein was enriched with, or labelled near, the bait; the list need not be complete. Tags and fused reporters may be left off the sequences shown.

For Nop1 (from UniProt P15646 1-327), the binding entry was “binds”.

B1: Nop6 (protein, UniProt Q07623 1-225)
chain: MGSEEDKKLTKKQLKAQQFRKSKEEKDQEKDVKKEQAPEGKRPNSAAGNDGEEPVKKKRKTRRGRGGKGKNGKKGNRFIVFVGSLPRDITAVELQNHFKNSSPDQIRLRADKGIAFLEFDADKDRTGIQRRMDIALLQHGTLLKEKKINVELTVGGGGNSQERLEKLKNKNIKLDEERKERLTKMINDGNQKKIAKTTATAAQTSGTDNKPVPAGIHPDRAKLLK
For B1, the binding result was “binds”.

B2: Upf1 (endogenous, co-purified with tagged Rbs1) (protein, UniProt P30771 1-971)
chain: MVGSGSHTPYDISNSPSDVNVQPATQLNSTLVEDDDVDNQLFEEAQVTETGFRSPSASDNSCAYCGIDSAKCVIKCNSCKKWFCNTKNGTSSSHIVNHLVLSHHNVVSLHPDSDLGDTVLECYNCGRKNVFLLGFVSAKSEAVVVLLCRIPCAQTKNANWDTDQWQPLIEDRQLLSWVAEQPTEEEKLKARLITPSQISKLEAKWRSNKDATINDIDAPEEQEAIPPLLLRYQDAYEYQRSYGPLIKLEADYDKQLKESQALEHISVSWSLALNNRHLASFTLSTFESNELKVAIGDEMILWYSGMQHPDWEGRGYIVRLPNSFQDTFTLELKPSKTPPPTHLTTGFTAEFIWKGTSYDRMQDALKKFAIDKKSISGYLYYKILGHQVVDISFDVPLPKEFSIPNFAQLNSSQSNAVSHVLQRPLSLIQGPPGTGKTVTSATIVYHLSKIHKDRILVCAPSNVAVDHLAAKLRDLGLKVVRLTAKSREDVESSVSNLALHNLVGRGAKGELKNLLKLKDEVGELSASDTKRFVKLVRKTEAEILNKADVVCCTCVGAGDKRLDTKFRTVLIDESTQASEPECLIPIVKGAKQVILVGDHQQLGPVILERKAADAGLKQSLFERLISLGHVPIRLEVQYRMNPYLSEFPSNMFYEGSLQNGVTIEQRTVPNSKFPWPIRGIPMMFWANYGREEISANGTSFLNRIEAMNCERIITKLFRDGVKPEQIGVITPYEGQRAYILQYMQMNGSLDKDLYIKVEVASVDAFQGREKDYIILSCVRANEQQAIGFLRDPRRLNVGLTRAKYGLVILGNPRSLARNTLWNHLLIHFREKGCLVEGTLDNLQLCTVQLVRPQPRKTERPMNAQFNVESEMGDFPKFQDFDAQSMVSFSGQIGDFGNAFVDNTELSSYINNEYWNFENFKSAFSQKQNRNEIDDRNLYQEEASHLNSNFARELQREEQKHELSKDFSNLGI
With B2, the binding entry is reported as “binds”.

For the origin of these results see paper PMC7708074.
